Test results from PubChem BioAssay AID504834 (National Center for Advancing Translational Sciences (NCATS), 2011).
Out of some 320,000 compounds screened, about 22,000 (6.9%) were called active. Inconclusive means that the source gave no clear call. Such entries were picked first, then a sample of the others. Calls come from the whole dose curve; as a rule, active = well fitted inhibition curve with a large enough effect; inconclusive = small, poorly fitted or top-dose-only effect, or another doubt; inactive = no such curve, though single readings can be large or run the other way. Potencies beside an inconclusive call are fits to weak or partial responses and may not hold up.

Assay: Primary qHTS for delayed death inhibitors of the malarial parasite plastid, 96 hour incubation
Conditions: P. falciparum luciferase reporter growth; series mostly up to 28.7 µM; activity change, negative = inhibition: at the top concentration
In short: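 Plates of compound plus infected erythrocytes (2% hematocrit, 0.05% parasitemia final) incubate 96 hours, 37 C, 5% CO2. Detection reagent added; reduced luminescence from the parasites' luciferase reporter flags inhibition.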
% is set by controls: 0 for no effect and ±100 for the full control effect; potency is the fitted concentration of half-maximal effect.

Row | SMILES | Potency | activity change, negative = inhibition
1 | CCOC(=O)C1CCN(S(=O)(=O)c2cc(Br)cc3c2N(C(C)=O)C(C)C3)CC1 (centres undefined) | inconclusive: 11.7 µM [inhibitor, partial curve, poor fit] | –
2 | COc1ccccc1CN(C)C(=O)c1cc(C)nc2ccccc12 | inconclusive: 18.5 µM [inhibitor, single point] | –
3 | Cc1cc(Cl)ccc1OCCCC(=O)NCC1CCCO1 (centres undefined) | – | inactive: 11.6%
4 | CCN(C(=S)NCc1ccccc1)c1ccccc1 | inconclusive: 8.28 µM [inhibitor, partial curve, poor fit] | –
5 | COc1ccccc1NC(=O)CSc1nc2c(oc3ccccc32)c(=O)n1C | inconclusive: 18.5 µM [inhibitor, single point] | –
6 | COc1ccc(-c2nc(CN(C)C(C)c3ccon3)c(C)o2)c(C)c1C (centres undefined) | – | inactive: 22.3%
7 | COc1ccc(/C=c2\sc3nc(-c4ccccc4)c(-c4ccccc4)n3c2=O)cc1OC | inconclusive: 0.415 µM [inhibitor, partial curve, poor fit] | –
8 | COc1ccc(C2=NO[C@@H]3[C@@H]4C[C@@H]([C@H]5C(=O)N(c6ccc7c(c6)OCO7)C(=O)[C@@H]45)[C@H]23)cc1OC | inconclusive: 13.1 µM [inhibitor, single point] | –
9 | COc1ccccc1N1CCN(C(=O)NC23CC4CC(CC(C4)C2)C3)CC1 | inconclusive: 18.5 µM [inhibitor, single point] | –
10 | O=C(O)c1ccccc1C(=O)c1ccc(N2CCOCC2)c([N+](=O)[O-])c1 | inconclusive: 0.329 µM [inhibitor, full curve, poor fit] | –
11 | CCS(=O)(=O)n1nc(-c2ccc(OC)cc2)nc1N | – | inactive: 70.2%
12 | CCN(CC)c1cc(C)c2cc(NC(=O)c3ccccc3F)ccc2n1 | inconclusive: 6.57 µM [inhibitor, partial curve, poor fit] | –
13 | CCN(CC)S(=O)(=O)c1ccc(N2CCOCC2)c(NC(=O)c2ccc(F)cc2)c1 | inconclusive: 4.65 µM [inhibitor, partial curve] | –
14 | COc1ccc(C(C(=O)NCc2ccccc2)N(C(=O)c2snc(C(N)=O)c2N)C2CCCC2)cc1O (centres undefined) | inconclusive: 11.7 µM [inhibitor, partial curve, poor fit] | –
15 | CCOc1cc(/C=N/NC(=O)c2nn(C)cc2Br)ccc1OCc1ccccc1 | inconclusive: 10.4 µM [inhibitor, single point] | –
16 | O=P(c1ccccc1)(c1ccccc1)c1cc(Br)cc(Br)c1OCCO | inconclusive: 7.38 µM [inhibitor, partial curve, poor fit] | –
17 | O=C(Cc1csc(-c2ccc(F)cc2)n1)Nc1cccc(S(=O)(=O)NC2=NCCC2)c1 | active: 6.57 µM | –
18 | O=C(Nc1cc([N+](=O)[O-])ccc1N1CCOCC1)c1cccs1 | – | inactive: 38%
19 | CCn1c(C)c(C)c2cc(C(=O)Nc3cccc(Cl)c3)ccc21 | active: 14.7 µM | –
20 | Cc1cccc(OCC(=O)NNC(=O)c2ccc3nc[nH]c3c2)c1 | – | inactive: -5.79%
21 | CCOC(=O)c1c(NC(=O)CN2C(=O)NC3(CCCC3)C2=O)sc(C)c1CC | inconclusive: 18.5 µM [inhibitor, single point] | –
22 | CCc1ccc(/C=C2\SC(=S)N(CCCC(=O)Nc3ccccc3C(=O)O)C2=O)cc1 | active: 16.5 µM | –

Row | SMILES | Potency | activity change, negative = inhibition
23 | COCCn1ccc2c(OCC(=O)Nc3ccccc3OC)cccc2c1=O | inconclusive: 5.86 µM [inhibitor, single point] | –
24 | COc1cccc(-c2nnn(CC(C)=O)n2)c1 | inconclusive: 11.7 µM [inhibitor, partial curve, poor fit] | –
25 | CSC1=NCCN1CCOc1ccccc1 | inconclusive: 14.7 µM [inhibitor, partial curve, poor fit] | –
26 | O=C(Nc1ccc(N2CCOCC2)nc1N1CCOCC1)c1cccc(C(F)(F)F)c1 | inconclusive: 4.15 µM [inhibitor, full curve, poor fit] | –
27 | O=C(CCCn1c(SCc2cc(=O)n3ccccc3n2)nc2ccccc2c1=O)NCC1CCCO1 (centres undefined) | inconclusive: 18.5 µM [inhibitor, single point] | –
28 | O=c1c(Cl)c(N2CCC3(CC2)OCCO3)cnn1C12CC3CC(CC(C3)C1)C2 | inconclusive: 11.7 µM [inhibitor, partial curve, poor fit] | –
29 | NS(=O)(=O)c1ccc(CCNC(=O)C(=O)C2C(=O)Nc3ccccc32)cc1 (centres undefined) | – | inactive: 0%
30 | COc1ccccc1-c1nnc(C2CCN(S(=O)(=O)c3ccccc3[N+](=O)[O-])CC2)o1 | inconclusive: 18.5 µM [inhibitor, single point] | –
31 | COc1cc(/C=C/C(=O)N2CCN(c3n[nH]c(=O)[nH]c3=O)CC2)cc(OC)c1OC | inconclusive: 0.522 µM [inhibitor, full curve, poor fit] | –
32 | COc1ccc(C(=O)NC(C(=O)N2CCN(c3ccccc3O)CC2)C(C)C)cc1 (centres undefined) | inconclusive: 18.5 µM [inhibitor, single point] | –
33 | Cc1ccc(NCc2nnc(SC(C)C(=O)N/N=C/c3ccc(C)o3)n2-c2ccccc2)cc1 (centres undefined) | inconclusive: 11.7 µM [inhibitor, single point] | –
34 | C/C(=N\NC(=S)Nc1ccc(C(C)C)cc1)c1ccc2c(c1)OCO2 | inconclusive: 8.28 µM [inhibitor, partial curve] | –
35 | CCCSc1ccc([C@@H]2[C@@H]3C(=O)N(C)C(=O)[C@@H]3[C@]3(C(=O)OC)CCCCN23)cc1OC | inconclusive: 10.4 µM [inhibitor, single point] | –
36 | COc1cc(S(=O)(=O)NCC2OCCc3ccccc32)ccc1-n1cnnn1 (centres undefined) | inconclusive: 18.5 µM [inhibitor, single point] | –
37 | C=C(C)COc1ccc(-c2ncncc2-c2ccccc2)c(O)c1 | active: 13.1 µM | –
38 | COc1ccccc1NC(=O)COc1ccc(/C=N/NC(=O)c2cccnc2)cc1 | – | inactive: 30.7%
39 | CC(NC(=O)COc1ccc(-c2nnco2)cc1)c1ccc(Cl)cc1Cl (centres undefined) | active: 13.1 µM | –
40 | O=C(CSCc1ccc(Cl)cc1)Nc1ccc(S(=O)(=O)N2CCCCCC2)cc1 | active: 13.1 µM | –
41 | COc1cccc(C2Cc3ccccc3C(=O)O2)c1 (centres undefined) | – | inactive: 25.3%
42 | COc1ccc(CCNC(=O)c2cc3cccc(OC)c3oc2=O)cc1OC | inconclusive: 18.5 µM [inhibitor, single point] | –
43 | COc1ccc(CCNc2cc(N3CCN(C(=O)c4ccccc4F)CC3)ccc2[N+](=O)[O-])cc1OC | – | inactive: 14.8%
44 | COc1cccc(NC(=O)CN(C)C(=O)CC(C)c2ccccc2)c1 (centres undefined) | inconclusive: 18.5 µM [inhibitor, single point] | –

15 of the compounds above, comma-delimited.
Row,SMILES,Potency,"activity change, negative = inhibition"
24,COc1cccc(-c2nnn(CC(C)=O)n2)c1,"inconclusive: 11.7 µM [inhibitor, partial curve, poor fit]",–
25,CSC1=NCCN1CCOc1ccccc1,"inconclusive: 14.7 µM [inhibitor, partial curve, poor fit]",–
26,O=C(Nc1ccc(N2CCOCC2)nc1N1CCOCC1)c1cccc(C(F)(F)F)c1,"inconclusive: 4.15 µM [inhibitor, full curve, poor fit]",–
27,O=C(CCCn1c(SCc2cc(=O)n3ccccc3n2)nc2ccccc2c1=O)NCC1CCCO1 (centres undefined),"inconclusive: 18.5 µM [inhibitor, single point]",–
28,O=c1c(Cl)c(N2CCC3(CC2)OCCO3)cnn1C12CC3CC(CC(C3)C1)C2,"inconclusive: 11.7 µM [inhibitor, partial curve, poor fit]",–
29,NS(=O)(=O)c1ccc(CCNC(=O)C(=O)C2C(=O)Nc3ccccc32)cc1 (centres undefined),–,inactive: 0%
30,COc1ccccc1-c1nnc(C2CCN(S(=O)(=O)c3ccccc3[N+](=O)[O-])CC2)o1,"inconclusive: 18.5 µM [inhibitor, single point]",–
31,COc1cc(/C=C/C(=O)N2CCN(c3n[nH]c(=O)[nH]c3=O)CC2)cc(OC)c1OC,"inconclusive: 0.522 µM [inhibitor, full curve, poor fit]",–
32,COc1ccc(C(=O)NC(C(=O)N2CCN(c3ccccc3O)CC2)C(C)C)cc1 (centres undefined),"inconclusive: 18.5 µM [inhibitor, single point]",–
33,Cc1ccc(NCc2nnc(SC(C)C(=O)N/N=C/c3ccc(C)o3)n2-c2ccccc2)cc1 (centres undefined),"inconclusive: 11.7 µM [inhibitor, single point]",–
34,C/C(=N\NC(=S)Nc1ccc(C(C)C)cc1)c1ccc2c(c1)OCO2,"inconclusive: 8.28 µM [inhibitor, partial curve]",–
35,CCCSc1ccc([C@@H]2[C@@H]3C(=O)N(C)C(=O)[C@@H]3[C@]3(C(=O)OC)CCCCN23)cc1OC,"inconclusive: 10.4 µM [inhibitor, single point]",–
36,COc1cc(S(=O)(=O)NCC2OCCc3ccccc32)ccc1-n1cnnn1 (centres undefined),"inconclusive: 18.5 µM [inhibitor, single point]",–
37,C=C(C)COc1ccc(-c2ncncc2-c2ccccc2)c(O)c1,active: 13.1 µM,–
38,COc1ccccc1NC(=O)COc1ccc(/C=N/NC(=O)c2cccnc2)cc1,–,inactive: 30.7%

The list continues:

Row | SMILES | Potency | activity change, negative = inhibition
45 | COc1ccc(NS(=O)(=O)c2csc(C(N)=O)c2)cc1 | inconclusive: 18.5 µM [inhibitor, single point] | –
46 | Cc1ccc(S(=O)(=O)c2c(N)n(CCCO)c3nc4ccccc4nc23)cc1 | inconclusive: 18.5 µM [inhibitor, single point] | –
47 | COC(CNC(=O)C1CCN(S(=O)(=O)c2ccc3nc4c(c(C(=O)O)c3c2)CC(C)CC4)CC1)OC (centres undefined) | inconclusive: 10.4 µM [inhibitor, single point] | –
48 | CCN1CCN(C(=O)c2[nH]c3ccc(OC)cc3c2C)CC1 | inconclusive: 2.62 µM [inhibitor, single point] | –
49 | C[C@@H]1O[C@H](O[C@@H]2\C=C/C=C\C=C/C=C\C[C@H](C)OC(=O)/C=C\[C@H]3O[C@@H]3C[C@H](O)C[C@]3(O)C[C@@H](O)[C@@H](C(=O)O)[C@H](C2)O3)[C@@H](O)[C@H](N)[C@@H]1O (stereo in doubt) | – | inactive: 8.07%
50 | CC(C)CN1C(=O)NC2(CCCc3ccccc32)C1=O (centres undefined) | inconclusive: 18.5 µM [inhibitor, single point] | –
51 | CCCCNC(=O)C1CCN(Cc2ccc(OCc3ccccc3)cc2)CC1 | inconclusive: 18.5 µM [inhibitor, single point] | –
52 | O=C(CSc1nnnn1C1CC1)Nc1cccc(S(=O)(=O)N2CCCC2)c1 | inconclusive: 10.4 µM [inhibitor, single point] | –
53 | COc1ccc(S(=O)(=O)N2CCCC2CNC(=O)C(=O)NCc2ccc(C)cc2)cc1 (centres undefined) | inconclusive: 14.7 µM [inhibitor, partial curve, poor fit] | –
54 | COC(=O)c1c(C)[nH]c(C(=O)OCC(=O)N2c3ccccc3NC(=O)C2(C)C)c1C | – | inactive: -44%
55 | CCn1c(SCC(=O)NNC(=O)Cc2ccccc2)nnc1-c1ccncc1 | active: 0.329 µM | –
56 | CC(C)(C)c1ccc(OCC(=O)N2CCN(c3ccccn3)CC2)cc1 | inconclusive: 10.4 µM [inhibitor, single point] | –
57 | CN(Cc1nc2ccccc2c(=O)[nH]1)C(=O)c1ccc(S(=O)(=O)N(C)C)cc1 | inconclusive: 3.29 µM [inhibitor, full curve, poor fit] | –
58 | Cc1ccc(OCC(O)CN2C(=O)NC(C)(C)C2=O)cc1C (centres undefined) | inconclusive: 14.7 µM [inhibitor, partial curve, poor fit] | –
59 | CC(C)(C)S(=O)(=O)c1ccccc1C(=O)O | active: 9.28 µM | –
60 | CCOC(=O)CSc1nnc(-c2ccc(Cl)cc2Cl)o1 | inconclusive: 16.5 µM [inhibitor, single point] | –
61 | O=[N+]([O-])c1ccc(Cl)c(-c2ccc(/C=N/c3c(-c4ccco4)nc4ccccn34)o2)c1 | – | inactive: -1.61%
62 | O=NC1=C(c2c(O)[nH]c3ccccc23)CCCC1 | – | inactive: -0.713%
63 | COc1ccc(CC(=O)NNS(=O)(=O)c2ccccc2[N+](=O)[O-])cc1 | active: 4.65 µM | –
64 | OCCN(CCCn1c(-c2ccncc2)nc2ccccc21)c1nc(CN2CCCCC2)cs1 | inconclusive: 14.7 µM [inhibitor, partial curve] | –
